# Reference: paper PMC9345969
# These are yes or no findings as the source states them, for the method shown. Binding seen in cells or lysates may run through a third protein. Some binding calls cover weakened binding; strength is not graded here. Sequences can lack the tags named with a protein.
# T1: KSR2-Myc (UniProt Q6VAB6)
# T1 sequence: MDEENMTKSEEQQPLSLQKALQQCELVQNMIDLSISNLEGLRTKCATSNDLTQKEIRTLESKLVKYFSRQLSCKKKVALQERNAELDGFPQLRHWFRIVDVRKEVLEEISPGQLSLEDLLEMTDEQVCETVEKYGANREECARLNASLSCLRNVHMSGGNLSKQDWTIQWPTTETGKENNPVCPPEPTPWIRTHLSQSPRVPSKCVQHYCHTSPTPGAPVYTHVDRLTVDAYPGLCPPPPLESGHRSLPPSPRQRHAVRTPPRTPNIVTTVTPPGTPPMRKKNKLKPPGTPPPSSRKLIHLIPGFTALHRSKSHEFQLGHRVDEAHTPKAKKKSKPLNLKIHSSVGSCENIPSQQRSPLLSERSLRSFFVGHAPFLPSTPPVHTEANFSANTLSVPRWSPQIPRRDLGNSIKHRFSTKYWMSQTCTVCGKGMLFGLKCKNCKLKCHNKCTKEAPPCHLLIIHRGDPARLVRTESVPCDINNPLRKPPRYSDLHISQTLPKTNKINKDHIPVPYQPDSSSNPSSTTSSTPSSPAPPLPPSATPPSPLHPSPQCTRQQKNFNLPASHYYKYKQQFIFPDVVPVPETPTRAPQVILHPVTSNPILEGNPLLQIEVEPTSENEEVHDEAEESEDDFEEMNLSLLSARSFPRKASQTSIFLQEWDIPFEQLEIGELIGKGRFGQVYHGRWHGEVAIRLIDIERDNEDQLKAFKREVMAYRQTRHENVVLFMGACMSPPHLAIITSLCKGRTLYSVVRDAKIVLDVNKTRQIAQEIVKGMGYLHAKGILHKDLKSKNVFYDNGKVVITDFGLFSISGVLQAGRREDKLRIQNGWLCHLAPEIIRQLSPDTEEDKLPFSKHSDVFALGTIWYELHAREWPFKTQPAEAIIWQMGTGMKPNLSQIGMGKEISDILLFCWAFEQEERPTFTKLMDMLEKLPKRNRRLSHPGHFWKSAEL
# T2: GST-praja2 (UniProt O43164)
# T2 sequence: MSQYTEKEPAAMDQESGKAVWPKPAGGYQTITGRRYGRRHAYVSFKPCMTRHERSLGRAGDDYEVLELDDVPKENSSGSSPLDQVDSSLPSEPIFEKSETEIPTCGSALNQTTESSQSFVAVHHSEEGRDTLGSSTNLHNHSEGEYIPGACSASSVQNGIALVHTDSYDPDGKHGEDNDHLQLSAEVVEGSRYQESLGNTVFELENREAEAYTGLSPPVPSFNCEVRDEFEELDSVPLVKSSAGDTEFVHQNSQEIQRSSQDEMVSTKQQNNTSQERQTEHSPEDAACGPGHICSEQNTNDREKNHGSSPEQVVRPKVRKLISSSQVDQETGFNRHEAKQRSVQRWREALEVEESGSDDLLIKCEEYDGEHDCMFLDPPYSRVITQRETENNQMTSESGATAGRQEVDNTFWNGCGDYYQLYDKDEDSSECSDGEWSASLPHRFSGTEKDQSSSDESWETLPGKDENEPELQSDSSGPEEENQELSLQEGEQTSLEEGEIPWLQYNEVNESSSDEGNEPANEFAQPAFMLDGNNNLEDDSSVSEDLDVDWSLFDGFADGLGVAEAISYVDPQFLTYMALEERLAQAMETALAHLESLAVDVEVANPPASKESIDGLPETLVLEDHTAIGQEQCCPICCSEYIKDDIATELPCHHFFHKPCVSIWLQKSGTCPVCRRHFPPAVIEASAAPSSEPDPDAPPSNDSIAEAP
# T3: Flag-praja2 (UniProt O43164)
# T3 sequence: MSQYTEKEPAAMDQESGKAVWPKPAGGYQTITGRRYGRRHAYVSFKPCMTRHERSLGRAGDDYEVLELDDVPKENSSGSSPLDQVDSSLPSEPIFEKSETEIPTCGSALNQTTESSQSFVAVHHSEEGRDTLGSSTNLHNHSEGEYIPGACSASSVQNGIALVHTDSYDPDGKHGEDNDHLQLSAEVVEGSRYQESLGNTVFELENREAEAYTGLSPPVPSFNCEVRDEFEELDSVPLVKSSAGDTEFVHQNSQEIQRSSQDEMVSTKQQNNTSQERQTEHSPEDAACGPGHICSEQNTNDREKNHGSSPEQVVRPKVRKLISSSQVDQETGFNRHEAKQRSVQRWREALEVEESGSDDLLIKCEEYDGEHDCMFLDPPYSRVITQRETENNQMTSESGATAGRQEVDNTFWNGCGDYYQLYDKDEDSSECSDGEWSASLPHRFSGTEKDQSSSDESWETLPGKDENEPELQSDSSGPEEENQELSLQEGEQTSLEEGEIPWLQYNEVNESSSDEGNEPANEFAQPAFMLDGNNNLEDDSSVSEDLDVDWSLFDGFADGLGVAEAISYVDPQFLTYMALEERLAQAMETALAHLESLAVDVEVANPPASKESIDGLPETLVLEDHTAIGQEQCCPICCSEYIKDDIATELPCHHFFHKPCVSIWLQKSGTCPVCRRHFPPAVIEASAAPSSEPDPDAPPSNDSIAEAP
# Assays:
# [1] = biological target: T1, KSR2-Myc; assay: co-IP; lysates of HEK293 cells transiently transfected with Myc-tagged KSR2 and Flag-praja2 vectors; immunoprecipitation with anti-Myc, blots with anti-Flag and anti-Myc; 1% Triton buffer (150 mM NaCl, 50 mM Tris-HCl pH 7.5, 1 mM EDTA, 5 mM MgCl2), overnight
# [2] = biological target: T2, GST-praja2; assay: pull-down; 20 μl GST-Praja2 beads with in vitro translated [35S]-KSR2 in 200 μl lysis buffer (150 mM NaCl, 50 mM Tris-HCl pH 7.5, 1 mM EDTA, 0.5% Triton X-100), 4 °C overnight; washes with 0.4 M NaCl; autoradiography; only the target purified
# [3] = biological target: T3, Flag-praja2; assay: co-IP; lysates of HEK293 cells transiently expressing Flag-praja2 and KSR2-Myc; immunoprecipitation with anti-Flag; 1% Triton buffer
binder,measurement,setting,value
"Flag-praja2 (enzyme, UniProt O43164 1-708) MSQYTEKEPAAMDQESGKAVWPKPAGGYQTITGRRYGRRHAYVSFKPCMTRHERSLGRAGDDYEVLELDDVPKENSSGSSPLDQVDSSLPSEPIFEKSETEIPTCGSALNQTTESSQSFVAVHHSEEGRDTLGSSTNLHNHSEGEYIPGACSASSVQNGIALVHTDSYDPDGKHGEDNDHLQLSAEVVEGSRYQESLGNTVFELENREAEAYTGLSPPVPSFNCEVRDEFEELDSVPLVKSSAGDTEFVHQNSQEIQRSSQDEMVSTKQQNNTSQERQTEHSPEDAACGPGHICSEQNTNDREKNHGSSPEQVVRPKVRKLISSSQVDQETGFNRHEAKQRSVQRWREALEVEESGSDDLLIKCEEYDGEHDCMFLDPPYSRVITQRETENNQMTSESGATAGRQEVDNTFWNGCGDYYQLYDKDEDSSECSDGEWSASLPHRFSGTEKDQSSSDESWETLPGKDENEPELQSDSSGPEEENQELSLQEGEQTSLEEGEIPWLQYNEVNESSSDEGNEPANEFAQPAFMLDGNNNLEDDSSVSEDLDVDWSLFDGFADGLGVAEAISYVDPQFLTYMALEERLAQAMETALAHLESLAVDVEVANPPASKESIDGLPETLVLEDHTAIGQEQCCPICCSEYIKDDIATELPCHHFFHKPCVSIWLQKSGTCPVCRRHFPPAVIEASAAPSSEPDPDAPPSNDSIAEAP",binding,[1],binds
"in vitro translated, [35S]-labeled KSR2 (protein, UniProt Q6VAB6 1-950, [35S] label) MDEENMTKSEEQQPLSLQKALQQCELVQNMIDLSISNLEGLRTKCATSNDLTQKEIRTLESKLVKYFSRQLSCKKKVALQERNAELDGFPQLRHWFRIVDVRKEVLEEISPGQLSLEDLLEMTDEQVCETVEKYGANREECARLNASLSCLRNVHMSGGNLSKQDWTIQWPTTETGKENNPVCPPEPTPWIRTHLSQSPRVPSKCVQHYCHTSPTPGAPVYTHVDRLTVDAYPGLCPPPPLESGHRSLPPSPRQRHAVRTPPRTPNIVTTVTPPGTPPMRKKNKLKPPGTPPPSSRKLIHLIPGFTALHRSKSHEFQLGHRVDEAHTPKAKKKSKPLNLKIHSSVGSCENIPSQQRSPLLSERSLRSFFVGHAPFLPSTPPVHTEANFSANTLSVPRWSPQIPRRDLGNSIKHRFSTKYWMSQTCTVCGKGMLFGLKCKNCKLKCHNKCTKEAPPCHLLIIHRGDPARLVRTESVPCDINNPLRKPPRYSDLHISQTLPKTNKINKDHIPVPYQPDSSSNPSSTTSSTPSSPAPPLPPSATPPSPLHPSPQCTRQQKNFNLPASHYYKYKQQFIFPDVVPVPETPTRAPQVILHPVTSNPILEGNPLLQIEVEPTSENEEVHDEAEESEDDFEEMNLSLLSARSFPRKASQTSIFLQEWDIPFEQLEIGELIGKGRFGQVYHGRWHGEVAIRLIDIERDNEDQLKAFKREVMAYRQTRHENVVLFMGACMSPPHLAIITSLCKGRTLYSVVRDAKIVLDVNKTRQIAQEIVKGMGYLHAKGILHKDLKSKNVFYDNGKVVITDFGLFSISGVLQAGRREDKLRIQNGWLCHLAPEIIRQLSPDTEEDKLPFSKHSDVFALGTIWYELHAREWPFKTQPAEAIIWQMGTGMKPNLSQIGMGKEISDILLFCWAFEQEERPTFTKLMDMLEKLPKRNRRLSHPGHFWKSAEL",binding,[2],binds
"KSR2-Myc (protein, UniProt Q6VAB6 1-950) MDEENMTKSEEQQPLSLQKALQQCELVQNMIDLSISNLEGLRTKCATSNDLTQKEIRTLESKLVKYFSRQLSCKKKVALQERNAELDGFPQLRHWFRIVDVRKEVLEEISPGQLSLEDLLEMTDEQVCETVEKYGANREECARLNASLSCLRNVHMSGGNLSKQDWTIQWPTTETGKENNPVCPPEPTPWIRTHLSQSPRVPSKCVQHYCHTSPTPGAPVYTHVDRLTVDAYPGLCPPPPLESGHRSLPPSPRQRHAVRTPPRTPNIVTTVTPPGTPPMRKKNKLKPPGTPPPSSRKLIHLIPGFTALHRSKSHEFQLGHRVDEAHTPKAKKKSKPLNLKIHSSVGSCENIPSQQRSPLLSERSLRSFFVGHAPFLPSTPPVHTEANFSANTLSVPRWSPQIPRRDLGNSIKHRFSTKYWMSQTCTVCGKGMLFGLKCKNCKLKCHNKCTKEAPPCHLLIIHRGDPARLVRTESVPCDINNPLRKPPRYSDLHISQTLPKTNKINKDHIPVPYQPDSSSNPSSTTSSTPSSPAPPLPPSATPPSPLHPSPQCTRQQKNFNLPASHYYKYKQQFIFPDVVPVPETPTRAPQVILHPVTSNPILEGNPLLQIEVEPTSENEEVHDEAEESEDDFEEMNLSLLSARSFPRKASQTSIFLQEWDIPFEQLEIGELIGKGRFGQVYHGRWHGEVAIRLIDIERDNEDQLKAFKREVMAYRQTRHENVVLFMGACMSPPHLAIITSLCKGRTLYSVVRDAKIVLDVNKTRQIAQEIVKGMGYLHAKGILHKDLKSKNVFYDNGKVVITDFGLFSISGVLQAGRREDKLRIQNGWLCHLAPEIIRQLSPDTEEDKLPFSKHSDVFALGTIWYELHAREWPFKTQPAEAIIWQMGTGMKPNLSQIGMGKEISDILLFCWAFEQEERPTFTKLMDMLEKLPKRNRRLSHPGHFWKSAEL",binding,[3],binds
